Literature values in patent US20220008382A1, “ALCOHOL ANTIDOTE” (Evanium Healthcare GmbH, priority 2018, published 2022).

Conditions: at 25° C.; cited from earlier work

For `OC[C@H]1O[C@@H]2O[C@H]3[C@H](O)[C@@H](O)[C@@H](O[C@H]4[C@H](O)[C@@H](O)[C@@H](O[C@H]5[C@H](O)[C@@H](O)[C@@H](O[C@H]6[C@H](O)[C@@H](O)[C@@H](O[C@H]7[C@H](O)[C@@H](O)[C@@H](O[C@H]8[C@H](O)[C@@H](O)[C@@H](O[C@H]9[C@H](O)[C@@H](O)[C@@H](O[C@H]1[C@H](O)[C@H]2O)O[C@@H]9CO)O[C@@H]8CO)O[C@@H]7CO)O[C@@H]6CO)O[C@@H]5CO)O[C@@H]4CO)O[C@@H]3CO` [γ-CD, γ-cyclodextrin], the Water solubility is listed as 223 mg/mL.
